This is one part of the list.

By UniProt entry, the sequences of proteins in these tests, tags left out. Where a name states a change or a piece, a line headed by the entry shows the natural chain unless it says otherwise.
UniProt Q12955: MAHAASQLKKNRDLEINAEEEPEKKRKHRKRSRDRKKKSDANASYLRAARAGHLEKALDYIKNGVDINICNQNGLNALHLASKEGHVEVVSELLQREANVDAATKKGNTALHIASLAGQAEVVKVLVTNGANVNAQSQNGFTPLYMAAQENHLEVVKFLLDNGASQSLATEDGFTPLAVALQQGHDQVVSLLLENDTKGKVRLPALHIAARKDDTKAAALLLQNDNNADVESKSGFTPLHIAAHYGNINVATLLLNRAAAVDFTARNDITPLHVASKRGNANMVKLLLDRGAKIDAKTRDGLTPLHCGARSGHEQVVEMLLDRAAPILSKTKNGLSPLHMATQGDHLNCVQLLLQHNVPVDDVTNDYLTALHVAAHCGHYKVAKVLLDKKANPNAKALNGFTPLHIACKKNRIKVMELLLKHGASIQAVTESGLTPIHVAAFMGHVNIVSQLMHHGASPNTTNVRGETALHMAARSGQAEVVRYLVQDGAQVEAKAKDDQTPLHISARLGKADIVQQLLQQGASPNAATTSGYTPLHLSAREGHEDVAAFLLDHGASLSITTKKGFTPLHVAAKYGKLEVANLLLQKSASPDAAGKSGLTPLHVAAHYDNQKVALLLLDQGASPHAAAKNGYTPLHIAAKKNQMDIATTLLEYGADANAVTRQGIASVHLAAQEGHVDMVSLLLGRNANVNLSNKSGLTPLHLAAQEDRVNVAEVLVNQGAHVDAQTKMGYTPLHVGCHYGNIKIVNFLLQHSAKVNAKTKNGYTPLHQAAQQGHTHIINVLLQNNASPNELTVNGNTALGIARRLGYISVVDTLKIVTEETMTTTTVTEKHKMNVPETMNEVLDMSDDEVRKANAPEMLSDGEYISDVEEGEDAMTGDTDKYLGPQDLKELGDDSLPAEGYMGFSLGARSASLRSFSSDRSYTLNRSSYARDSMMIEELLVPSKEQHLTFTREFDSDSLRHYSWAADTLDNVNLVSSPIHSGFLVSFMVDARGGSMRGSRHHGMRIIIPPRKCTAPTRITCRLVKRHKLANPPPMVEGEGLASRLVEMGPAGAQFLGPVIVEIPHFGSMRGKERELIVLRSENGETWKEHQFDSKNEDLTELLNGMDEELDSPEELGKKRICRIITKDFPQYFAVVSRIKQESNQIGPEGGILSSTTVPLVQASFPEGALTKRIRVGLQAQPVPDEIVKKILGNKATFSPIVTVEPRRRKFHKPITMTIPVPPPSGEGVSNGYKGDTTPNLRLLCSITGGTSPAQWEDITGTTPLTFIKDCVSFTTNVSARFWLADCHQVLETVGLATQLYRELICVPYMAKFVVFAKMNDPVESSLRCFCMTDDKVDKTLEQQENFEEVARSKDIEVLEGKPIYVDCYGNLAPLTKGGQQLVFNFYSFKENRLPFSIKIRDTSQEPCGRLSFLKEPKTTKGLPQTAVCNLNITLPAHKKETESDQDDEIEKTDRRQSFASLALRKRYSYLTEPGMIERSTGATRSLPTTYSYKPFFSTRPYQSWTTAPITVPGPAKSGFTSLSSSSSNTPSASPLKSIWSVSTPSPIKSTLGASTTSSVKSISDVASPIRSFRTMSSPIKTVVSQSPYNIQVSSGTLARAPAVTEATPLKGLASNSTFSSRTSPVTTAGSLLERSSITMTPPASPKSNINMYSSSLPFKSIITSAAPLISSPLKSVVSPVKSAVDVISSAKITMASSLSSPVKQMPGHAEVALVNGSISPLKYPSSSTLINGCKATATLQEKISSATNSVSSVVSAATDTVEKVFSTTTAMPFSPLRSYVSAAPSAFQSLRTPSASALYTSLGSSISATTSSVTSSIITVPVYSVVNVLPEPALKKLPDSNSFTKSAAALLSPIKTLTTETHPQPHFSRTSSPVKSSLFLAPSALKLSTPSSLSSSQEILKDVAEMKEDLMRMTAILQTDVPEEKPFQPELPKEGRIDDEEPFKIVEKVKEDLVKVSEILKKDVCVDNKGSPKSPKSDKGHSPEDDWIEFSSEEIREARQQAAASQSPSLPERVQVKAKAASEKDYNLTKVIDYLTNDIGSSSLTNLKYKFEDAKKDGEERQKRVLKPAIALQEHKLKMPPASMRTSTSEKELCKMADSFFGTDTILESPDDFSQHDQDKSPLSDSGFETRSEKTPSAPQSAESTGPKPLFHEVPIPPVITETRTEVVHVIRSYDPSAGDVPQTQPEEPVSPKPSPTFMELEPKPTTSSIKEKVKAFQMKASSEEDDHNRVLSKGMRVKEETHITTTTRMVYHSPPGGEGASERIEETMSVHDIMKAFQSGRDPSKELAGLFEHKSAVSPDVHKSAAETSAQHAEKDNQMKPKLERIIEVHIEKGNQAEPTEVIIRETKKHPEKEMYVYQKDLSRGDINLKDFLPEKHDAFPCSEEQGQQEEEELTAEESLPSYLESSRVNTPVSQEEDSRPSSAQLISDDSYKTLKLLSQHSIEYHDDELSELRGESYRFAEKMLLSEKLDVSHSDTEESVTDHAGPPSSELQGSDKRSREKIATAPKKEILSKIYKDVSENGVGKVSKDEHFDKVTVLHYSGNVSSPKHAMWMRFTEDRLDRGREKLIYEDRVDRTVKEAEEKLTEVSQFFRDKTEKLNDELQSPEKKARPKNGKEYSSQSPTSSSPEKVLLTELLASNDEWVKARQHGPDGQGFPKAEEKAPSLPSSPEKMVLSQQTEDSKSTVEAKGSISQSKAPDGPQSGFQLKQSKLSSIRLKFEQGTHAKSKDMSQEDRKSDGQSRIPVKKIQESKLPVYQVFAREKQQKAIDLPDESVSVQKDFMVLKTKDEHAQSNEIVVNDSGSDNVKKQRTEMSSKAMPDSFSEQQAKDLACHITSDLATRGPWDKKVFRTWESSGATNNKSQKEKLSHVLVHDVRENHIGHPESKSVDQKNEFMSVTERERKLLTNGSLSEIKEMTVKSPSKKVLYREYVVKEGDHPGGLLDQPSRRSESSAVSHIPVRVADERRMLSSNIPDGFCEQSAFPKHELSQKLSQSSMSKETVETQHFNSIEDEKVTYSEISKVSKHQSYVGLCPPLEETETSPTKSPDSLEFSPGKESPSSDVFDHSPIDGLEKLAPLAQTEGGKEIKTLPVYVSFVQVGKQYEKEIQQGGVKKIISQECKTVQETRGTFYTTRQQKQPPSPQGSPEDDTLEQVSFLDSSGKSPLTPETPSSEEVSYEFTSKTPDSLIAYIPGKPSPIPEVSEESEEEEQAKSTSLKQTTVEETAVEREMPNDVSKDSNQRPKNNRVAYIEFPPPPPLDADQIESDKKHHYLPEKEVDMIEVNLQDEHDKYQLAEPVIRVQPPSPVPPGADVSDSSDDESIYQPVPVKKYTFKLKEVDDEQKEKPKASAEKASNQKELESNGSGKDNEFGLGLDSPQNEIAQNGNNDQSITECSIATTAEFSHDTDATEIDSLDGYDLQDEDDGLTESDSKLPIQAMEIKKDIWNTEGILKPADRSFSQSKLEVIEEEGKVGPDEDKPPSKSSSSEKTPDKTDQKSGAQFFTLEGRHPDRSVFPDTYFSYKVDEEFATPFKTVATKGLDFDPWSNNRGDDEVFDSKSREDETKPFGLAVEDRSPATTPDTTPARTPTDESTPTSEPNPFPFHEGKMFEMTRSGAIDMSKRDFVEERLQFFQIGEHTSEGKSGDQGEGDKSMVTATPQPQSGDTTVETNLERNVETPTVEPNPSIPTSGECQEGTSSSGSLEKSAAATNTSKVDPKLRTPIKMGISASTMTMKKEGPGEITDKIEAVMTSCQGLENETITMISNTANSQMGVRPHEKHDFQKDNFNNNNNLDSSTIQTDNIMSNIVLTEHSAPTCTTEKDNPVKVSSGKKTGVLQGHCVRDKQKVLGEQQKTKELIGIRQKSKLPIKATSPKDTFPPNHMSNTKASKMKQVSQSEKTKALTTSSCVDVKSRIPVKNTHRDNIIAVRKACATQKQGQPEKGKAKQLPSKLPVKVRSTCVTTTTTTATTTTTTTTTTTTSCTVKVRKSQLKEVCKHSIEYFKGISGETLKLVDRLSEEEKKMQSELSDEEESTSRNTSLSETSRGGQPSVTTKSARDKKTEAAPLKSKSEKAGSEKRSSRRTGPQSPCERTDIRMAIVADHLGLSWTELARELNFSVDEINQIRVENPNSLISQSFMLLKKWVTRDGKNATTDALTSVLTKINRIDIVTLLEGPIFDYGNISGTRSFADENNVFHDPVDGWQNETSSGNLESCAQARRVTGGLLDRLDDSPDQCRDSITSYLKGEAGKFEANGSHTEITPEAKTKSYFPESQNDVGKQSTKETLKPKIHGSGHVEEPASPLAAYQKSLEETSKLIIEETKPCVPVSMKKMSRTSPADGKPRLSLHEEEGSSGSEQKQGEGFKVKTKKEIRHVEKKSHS
UniProt P49189: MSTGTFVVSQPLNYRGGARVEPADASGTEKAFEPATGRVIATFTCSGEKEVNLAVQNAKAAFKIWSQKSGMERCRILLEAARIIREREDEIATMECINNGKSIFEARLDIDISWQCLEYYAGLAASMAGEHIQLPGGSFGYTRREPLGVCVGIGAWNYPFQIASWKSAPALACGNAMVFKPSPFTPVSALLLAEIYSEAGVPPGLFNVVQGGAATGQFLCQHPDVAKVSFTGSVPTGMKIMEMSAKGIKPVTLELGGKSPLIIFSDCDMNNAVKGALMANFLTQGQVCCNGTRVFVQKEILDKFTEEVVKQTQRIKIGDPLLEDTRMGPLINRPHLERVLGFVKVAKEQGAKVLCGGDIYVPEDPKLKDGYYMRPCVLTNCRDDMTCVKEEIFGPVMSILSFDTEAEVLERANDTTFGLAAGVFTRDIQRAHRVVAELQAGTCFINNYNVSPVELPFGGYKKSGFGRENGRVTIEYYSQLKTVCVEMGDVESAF
UniProt Q9Y673: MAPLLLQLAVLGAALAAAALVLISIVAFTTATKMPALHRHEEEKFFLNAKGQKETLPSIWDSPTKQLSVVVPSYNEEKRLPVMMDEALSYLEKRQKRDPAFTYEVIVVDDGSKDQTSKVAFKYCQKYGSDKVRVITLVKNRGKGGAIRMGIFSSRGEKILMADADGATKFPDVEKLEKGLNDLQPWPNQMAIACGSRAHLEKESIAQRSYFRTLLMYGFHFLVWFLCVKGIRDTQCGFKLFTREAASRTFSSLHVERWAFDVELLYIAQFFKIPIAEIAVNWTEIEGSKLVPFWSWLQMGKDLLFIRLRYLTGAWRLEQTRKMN
UniProt Q8IZ83: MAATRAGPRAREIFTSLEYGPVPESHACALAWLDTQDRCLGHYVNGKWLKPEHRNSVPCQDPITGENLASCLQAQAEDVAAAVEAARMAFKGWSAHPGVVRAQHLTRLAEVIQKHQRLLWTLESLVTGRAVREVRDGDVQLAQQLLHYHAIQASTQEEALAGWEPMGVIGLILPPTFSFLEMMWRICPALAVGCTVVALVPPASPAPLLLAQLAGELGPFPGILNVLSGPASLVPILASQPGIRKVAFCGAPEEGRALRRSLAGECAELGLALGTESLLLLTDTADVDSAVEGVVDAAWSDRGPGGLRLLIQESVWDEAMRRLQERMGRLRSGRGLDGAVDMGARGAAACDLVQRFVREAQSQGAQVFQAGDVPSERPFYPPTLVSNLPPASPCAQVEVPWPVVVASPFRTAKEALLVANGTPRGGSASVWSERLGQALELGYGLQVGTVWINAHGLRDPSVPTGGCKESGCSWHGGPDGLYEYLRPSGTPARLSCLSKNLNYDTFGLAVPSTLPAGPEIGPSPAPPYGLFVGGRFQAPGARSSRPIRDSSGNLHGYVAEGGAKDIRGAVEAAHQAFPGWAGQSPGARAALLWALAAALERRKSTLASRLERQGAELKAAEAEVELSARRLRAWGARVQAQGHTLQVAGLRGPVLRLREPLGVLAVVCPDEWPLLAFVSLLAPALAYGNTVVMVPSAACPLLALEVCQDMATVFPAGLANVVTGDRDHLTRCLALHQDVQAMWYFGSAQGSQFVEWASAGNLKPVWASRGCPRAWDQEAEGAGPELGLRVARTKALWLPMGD
UniProt P56377: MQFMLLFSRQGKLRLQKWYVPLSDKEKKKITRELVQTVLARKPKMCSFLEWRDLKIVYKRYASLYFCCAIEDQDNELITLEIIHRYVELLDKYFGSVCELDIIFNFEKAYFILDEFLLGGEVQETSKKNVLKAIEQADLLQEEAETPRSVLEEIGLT
UniProt Q9H553: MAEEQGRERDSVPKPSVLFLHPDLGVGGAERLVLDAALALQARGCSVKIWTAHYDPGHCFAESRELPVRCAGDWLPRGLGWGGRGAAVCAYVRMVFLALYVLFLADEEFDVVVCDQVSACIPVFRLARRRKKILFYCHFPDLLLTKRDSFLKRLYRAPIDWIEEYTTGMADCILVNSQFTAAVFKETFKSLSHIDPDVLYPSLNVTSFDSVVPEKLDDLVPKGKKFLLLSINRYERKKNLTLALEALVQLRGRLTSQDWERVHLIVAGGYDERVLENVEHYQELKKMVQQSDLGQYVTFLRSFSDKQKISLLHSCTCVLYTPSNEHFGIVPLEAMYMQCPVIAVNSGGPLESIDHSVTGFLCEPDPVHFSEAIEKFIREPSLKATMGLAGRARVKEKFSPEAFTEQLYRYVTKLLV

The results in this text go back to the supplement of paper PMC10849652.

Holding throughout (experiment): log2 fold change, soluble protein after heating vs DMSO (PISA); higher = thermal stabilisation; K562 lysate, 10 uM; active = over 0.2 and 3.5 SD of the protein, either way, in both replicates (recomputed)
Compound in assay [1]: NCC(=O)Nc1ccc(-n2nc(C(F)(F)F)cc2-c2ccc3c(ccc4ccccc43)c2)cc1
In a few lines:
(§1)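 Quantification was by TMTpro 16plex LC-MS/MS with equalised channel sums, applied to the supernatant after 21,000xg for 90 min. Samples were crude K562 extract at 1 mg/mL protein in PBS pH 7.4 with 1 mM MgCl2, treated with 10 μM compound for 30 min, heated for 3 min across 48°C-58°C, pooled and brought to 0.5% NP-40 at 4°C. Values are log-two fold changes in thermal stability relative to solvent controls, from duplicates.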

Compound in assay [2]: O=C(CCCCCCC(=O)Nc1ccccc1)NO [vorinostat]
In outline:
as §1

Compound in assay [3]: O=C(O)c1ccc2c(c1)nc(Nc1cccc(Cl)c1)c1ccncc12 [silmitasertib]
In outline:
as §1

Compound in assay [4]: O=C1NC(=O)C(c2cnc3ccccn23)=C1c1cn2c3c(cc(F)cc13)CN(C(=O)N1CCCCC1)CC2
In a few lines: as §1

Compound in assay [5]: c1cn2cc(-c3ccc4cn[nH]c4c3)nc(Nc3ccc(N4CCOCC4)cc3)c2n1 [entospletinib]
In outline: as §1

Consider ANO10 (UniProt Q9NW15), for which the log2 fold change is inactive: -0.037 in assay [1]; inactive: 0.206 in assay [2]; inactive: 0.005 in assay [3]; inactive: -0.067 in assay [4]; inactive: -0.019 in assay [5].
As to ALG13 (UniProt Q9NP73), the log2 fold change in assay [1] is inactive: -0.027; in assay [2], active: -0.339; in assay [3], inactive: -0.01; in assay [4], inactive: 0.014; in assay [5], inactive: -0.082.
Take ANKRD26 (UniProt Q9UPS8): the log2 fold change in assay [1] was inactive: -0.04; in assay [2], inactive: -0.209; in assay [3], inactive: -0.052; in assay [4] it was inactive: -0.059; in assay [5], inactive: -0.151.
On to AP1M1 (UniProt Q9BXS5), for which the log2 fold change in assay [1] was inactive: 0; in assay [2] it was inactive: 0.099; in assay [3], inactive: 0.012; in assay [4] it was inactive: -0.018; in assay [5] it was inactive: -0.006.
Turning to ANK3 (UniProt Q12955), the log2 fold change in assay [1] is inactive: -0.007; in assay [2], inactive: -0.095; in assay [3], inactive: 0.004; in assay [4], inactive: 0.008; in assay [5], inactive: 0.005.
For ANXA7 (UniProt P20073), in that order: inactive: 0.013, inactive: -0.044, inactive: -0.003, inactive: 0.006 and inactive: 0.018.
As for ANXA5 (UniProt P08758), the log2 fold change in assay [1] is inactive: -0.008; in assay [2], inactive: 0.056; in assay [3] it was inactive: 0.021; in assay [4] it was inactive: -0.017; in assay [5], inactive: 0.006.
Regarding AP3B1 (UniProt O00203), the log2 fold change is inactive: 0.015 in assay [1]; inactive: -0.098 in assay [2]; inactive: -0.003 in assay [3]; inactive: -0.014 in assay [4]; inactive: 0.015 in assay [5].
Regarding AP4B1 (UniProt Q9Y6B7), the log2 fold change in assay [1] was inactive: 0.08; in assay [2] it was active: -0.286; in assay [3], inactive: 0.037; in assay [4], inactive: -0.051; in assay [5] it was inactive: 0.022.
For ANP32B (UniProt Q92688), in that order: inactive: 0.025, inactive: 0.072, inactive: 0, inactive: -0.015 and inactive: 0.013.
ALDH9A1 isoform 3 (UniProt P49189): the log2 fold change in assay [1] was inactive: 0.002; in assay [2] it was inactive: 0.15; in assay [3] it was inactive: -0.028; in assay [4], inactive: 0.03; in assay [5], inactive: 0.015.
In the case of ALG5 (UniProt Q9Y673), the log2 fold change in assay [1] was inactive: -0.057; in assay [2], inactive: 0.207; in assay [3], inactive: -0.095; in assay [4] it was inactive: -0.018; in assay [5] it was inactive: -0.003.
In the case of AP4M1 (UniProt O00189), the log2 fold change in assay [1] is inactive: 0.054; in assay [2] it was inactive: -0.061; in assay [3], inactive: -0.02; in assay [4], inactive: 0.005; in assay [5], inactive: 0.092.
For ANAPC5 (UniProt Q9UJX4), in that order: inactive: 0.023, inactive: -0.136, inactive: 0.034, inactive: 0.042 and inactive: 0.008.
Take ANAPC16 (UniProt Q96DE5): the log2 fold change is inactive: -0.019 in assay [1]; inactive: -0.11 in assay [2]; inactive: 0.005 in assay [3]; inactive: 0.021 in assay [4]; inactive: 0.146 in assay [5].
With ALG3 (UniProt Q92685), the log2 fold change is inactive: -0.107 in assay [1]; active: 0.461 in assay [2]; inactive: 0.285 in assay [3]; inactive: -0.157 in assay [4]; inactive: -0.01 in assay [5].
For ALDH16A1 (UniProt Q8IZ83), the log2 fold change was inactive: -0.013 in assay [1]; inactive: 0.035 in assay [2]; inactive: 0.015 in assay [3]; inactive: -0.044 in assay [4]; inactive: 0.025 in assay [5].
As to AP1S2 (UniProt P56377), the log2 fold change in assay [1] was inactive: 0.046; in assay [2], inactive: 0.061; in assay [3] it was inactive: -0.078; in assay [4], inactive: -0.133; in assay [5], inactive: -0.034.
On to AMPD3 isoform 4 (UniProt Q01432), for which the log2 fold change in assay [1] is inactive: -0.038; in assay [2] it was active: 0.256; in assay [3] it was inactive: -0.005; in assay [4], inactive: -0.021; in assay [5], inactive: 0.018.
For ANKFY1 isoform 4 (UniProt Q9P2R3), the log2 fold change is inactive: 0.014 in assay [1]; inactive: 0 in assay [2]; inactive: -0.004 in assay [3]; inactive: 0.003 in assay [4]; inactive: 0.027 in assay [5].
On the same counts, the results for ANXA2 isoform 2 (UniProt P07355) are inactive: -0.015, inactive: 0.023, inactive: -0.015, inactive: 0.003 and inactive: 0.016.
Turning to ANAPC7 (UniProt Q9UJX3), the log2 fold change is inactive: -0.035 in assay [1]; active: -0.218 in assay [2]; inactive: 0.023 in assay [3]; inactive: 0.007 in assay [4]; inactive: 0.046 in assay [5].
For ANKRD52 (UniProt Q8NB46), in that order: inactive: -0.043, active: -0.491, inactive: 0.063, inactive: -0.023 and inactive: -0.057.
For ALG2 (UniProt Q9H553), in that order: inactive: 0.05, inactive: 0.038, inactive: 0.006, inactive: -0.046 and inactive: -0.027.
For the target ANKH (UniProt Q9HCJ1), the log2 fold change in assay [1] is inactive: -0.063; in assay [2] it was inactive: 0.082; in assay [3], inactive: -0.007; in assay [4], inactive: 0.013; in assay [5], inactive: -0.21.
